PubChem BioAssay AID504786 | Drosophila RNAi Screening Center, 2011
In all, the deposit lists about 21,000 reagents; below is an unselected part of those with a known target gene and a result. 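Primary screen; positive scores mean lost reporter signal, so the sign may be inverted from the usual convention.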 Not all columns of the deposit are shown. Reagent sequences are not shown.

- Assay: 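Knock-downs reducing HIF reporter induction by the iron chelator DFO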 (primary screen)
- Cell system: Drosophila S2 cells with a stable HIF luciferase reporter
- Reagent: long dsRNA against Drosophila genes, about 0.2 µg dsRNA per well of a 384-well plate
- Duration: three days of knock-down, then 20 h of DFO before reading
- Challenge: desferrioxamine (DFO) at 100 µM, an iron chelator that mimics hypoxia, for 20 h
- Measured: 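Firefly luciferase driven by the mouse ldh-a hypoxia-response element, measured after 20 h of 100 µM DFO; z-scores per plate, higher means more signal lost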
- Direction: z-score: higher = stronger loss of HIF reporter signal

CG4860 [DRSC15664]: z-score, replicate 1 = -0.2
rngo [DRSC19903]: z-score, replicate 1 = -0.6
CG31279 [DRSC13158]: z-score, replicate 1 = -0.3
CG13131 [DRSC02227]: z-score, replicate 1 = 0
CG6790 [DRSC16117]: z-score, replicate 1 = -0.3
jigr1 [DRSC13724]: z-score, replicate 1 = -0.3
jigr1 [DRSC15233]: z-score, replicate 1 = -0.1
PNUTS [DRSC00638]: z-score, replicate 1 = -0.3
CG6712 [DRSC02981]: z-score, replicate 1 = -0.4
CG9992 [DRSC20226]: z-score, replicate 1 = -0.3
cn [DRSC07594]: z-score, replicate 1 = -0.2
CG15387 [DRSC00401]: z-score, replicate 1 = -0.3
sinah [DRSC09910]: z-score, replicate 1 = -0.4
CG33752 [DRSC05351]: z-score, replicate 1 = 0
elg1 [DRSC10229]: z-score, replicate 1 = -0.3
CG13384 [DRSC02258]: z-score, replicate 1 = -0.3

Not a retest: entries from further up.
CG31279 [DRSC13158]: z-score, replicate 1 = -0.3
CG13131 [DRSC02227]: z-score, replicate 1 = 0
CG6790 [DRSC16117]: z-score, replicate 1 = -0.3
